Our source for the binding values is publication PMC3927958.

This assay addresses T1, junctional adhesion molecule-A (mouse (endogenous in lung endothelial cells)) (UniProt O88792).
T1 sequence: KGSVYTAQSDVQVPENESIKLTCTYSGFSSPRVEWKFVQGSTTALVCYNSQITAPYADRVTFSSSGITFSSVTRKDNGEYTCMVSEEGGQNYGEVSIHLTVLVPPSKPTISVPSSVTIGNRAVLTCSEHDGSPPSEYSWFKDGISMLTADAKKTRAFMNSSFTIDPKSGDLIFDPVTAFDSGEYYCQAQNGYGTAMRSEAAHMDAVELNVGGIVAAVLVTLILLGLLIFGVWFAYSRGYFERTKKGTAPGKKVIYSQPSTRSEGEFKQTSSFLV
Description: co-IP; confluent murine JAM-A-WT endothelial cells incubated with dithiobis-(succinimidyl) propionate (cross-linker) 30 min at 37°C, lysed in RIPA buffer; JAM-A or EPAC-2 immunoprecipitated overnight from 8 mg total extract, IgG as control; immunoblotting.

Results are given in words; binding and its absence hold for the method and conditions named. Binding seen in cells or lysates may run through a third protein. Binding can be weak; no strength is given.

In the case of small GTPase Rap-1, the binding entry was “binds”.
